Experimental data published in PubChem BioAssay AID1671190 (National Center for Advancing Translational Sciences (NCATS), 2021).
Screen size: about 580,000 compounds; about 6,100 (1.1%) were called active. This list was built around the results that the source calls inconclusive (neither active nor inactive); the mix of calls is not that of the screen. Calls come from the whole dose curve; as a rule, active = well fitted inhibition curve with a large enough effect; inconclusive = small, poorly fitted or top-dose-only effect, or another doubt; inactive = no such curve, though single readings can be large or run the other way. Where the call is inconclusive, the potency comes from a doubtful curve fit.
% is set by controls: 0 for no effect and ±100 for the full control effect; potency is the fitted concentration of half-maximal effect.

Amino acid sequences for entries named in this document (tags omitted). A change or cut given only in a name is not applied to a line headed by its entry.
UniProt P18054: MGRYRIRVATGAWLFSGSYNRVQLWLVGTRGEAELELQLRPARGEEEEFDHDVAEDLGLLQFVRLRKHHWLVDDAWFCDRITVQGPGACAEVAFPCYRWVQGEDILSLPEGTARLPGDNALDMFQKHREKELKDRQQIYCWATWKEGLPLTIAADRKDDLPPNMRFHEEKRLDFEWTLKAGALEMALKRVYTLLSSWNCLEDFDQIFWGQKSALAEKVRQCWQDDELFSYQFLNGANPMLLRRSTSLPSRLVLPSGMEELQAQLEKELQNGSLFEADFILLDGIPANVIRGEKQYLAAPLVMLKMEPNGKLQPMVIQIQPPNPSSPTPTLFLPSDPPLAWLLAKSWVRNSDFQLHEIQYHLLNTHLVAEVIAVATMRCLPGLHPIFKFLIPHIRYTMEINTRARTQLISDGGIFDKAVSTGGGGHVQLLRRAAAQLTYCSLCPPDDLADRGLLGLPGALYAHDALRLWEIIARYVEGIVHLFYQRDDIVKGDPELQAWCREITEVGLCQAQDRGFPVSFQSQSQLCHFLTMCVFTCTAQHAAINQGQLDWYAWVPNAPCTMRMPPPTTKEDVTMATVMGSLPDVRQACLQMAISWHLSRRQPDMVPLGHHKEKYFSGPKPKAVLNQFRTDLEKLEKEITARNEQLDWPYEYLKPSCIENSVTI

These compounds were tested against Polyunsaturated fatty acid lipoxygenase ALOX12 (Homo sapiens) (UniProt P18054) (assay: Primary qHTS assay for inhibitors of human arachidonate 12S-lipoxygenase (ALOX12): Round 2). Conditions: purified 12hLO, xylenol orange hydroperoxide absorbance; activity change, negative = inhibition: at 108 µM (top of the series) unless noted.
Summary of the method: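 Hydroperoxide product was detected by ferrous iron/xylenol orange as the 573 to 405 nm absorbance ratio. Arachidonic acid at 40 uM (final) was turned over for 30 min at room temperature by 150 nM human 12hLO, pH 7.0 Hepes buffer, after 15 min compound preincubation.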
`COC(=O)[C@]1(C)N[C@H](CN(C)C(=O)Nc2ccc(C)cc2)[C@@H]2C(=O)N(Cc3ccccc3)C(=O)[C@@H]21` was tested, and the Potency was inconclusive: 35.5 µM [inhibitor, single point].
With `Cc1cccc(-n2nnc(C(=O)NC3CCCCC3)c2N)c1` the “activity change, negative = inhibition” value was inactive: -9.19%.
In the case of `O=C(Nc1cccc(Cl)c1)c1cccnn1`, the Potency is reported as inconclusive: 39.8 µM [inhibitor, partial curve, poor fit].
`COc1ccc(N2CCN(c3ncnc4scc(-c5ccc(F)cc5)c34)CC2)cc1` was tested, and the “activity change, negative = inhibition” value was inactive: -5.62%.
For `O=[N+]([O-])c1cccc(N/N=C/c2ccccn2)c1`, the Potency was inconclusive: 7.94 µM [inhibitor, full curve, poor fit].
For `O=C(O)/C(=C\c1ccccc1OC(F)F)c1ccc(-c2ccccc2)cc1`, the Potency was inconclusive: 89.1 µM [inhibitor, partial curve, poor fit].
`CCCc1cc(C(=O)N2CC[C@H]3CNC[C@H]32)n(C)n1` was tested, and the “activity change, negative = inhibition” value was inactive: -0.483%.
For `CC(C)OC(=O)c1c(NC(=O)c2ccco2)sc2c1CCCCC2`, the Potency was inconclusive: 3.98 µM [inhibitor, partial curve, poor fit].
`Brc1ccc(-c2noc(/C=C/c3ccccc3)n2)cc1` was tested, and the Potency was inconclusive: 25.1 µM [inhibitor, partial curve, poor fit].
In the case of `O=C(NCc1ccco1)C1CCCN(S(=O)(=O)c2ccc(-n3cnnn3)cc2)C1` (stereo not drawn), the Potency is reported as inconclusive: 50.1 µM [inhibitor, partial curve, poor fit].
For `CCOC(=O)c1nn(-c2ccccc2)c(=O)cc1SC1CCCCC1`, the Potency was inconclusive: 112 µM [inhibitor, single point].
`CCC(C(=O)NCc1ccccc1)n1c(Cc2cc(F)cc(F)c2)nc2ccccc21` (stereo not drawn) was tested, and the Potency was inconclusive: 39.8 µM [inhibitor, single point].
`CCOC(=O)c1c(C)nc(C)c(C(=O)OCC)c1-c1ccc(O)c(OC)c1` was tested, and the Potency was inconclusive: 44.7 µM [inhibitor, partial curve, poor fit].
In the case of `O=C(Nc1ncn[nH]1)c1cccc(S(=O)(=O)N2CCCCCC2)c1`, the “activity change, negative = inhibition” value is reported as inactive: -4.55%.
With `CCOC(=O)c1cc(-c2ccccc2)nn1Cc1cc(C)no1` the Potency was inconclusive: 14.1 µM [inhibitor, partial curve, poor fit].
With `CCOc1ccc(C2=NNC(c3cccs3)=Nc3ccc(OC)cc32)cc1` the “activity change, negative = inhibition” value was inactive: -5.88%.
With `CCOC(=O)c1c(-c2ccc(OC)cc2)csc1NC(=O)CCN1C(=O)c2ccccc2C1=O` the Potency was inconclusive: 50.1 µM [inhibitor, partial curve, poor fit].
With `COc1cccc(NC(=O)C2CCN(c3nnc(C)c4c(C)n(-c5ccccc5)nc34)CC2)c1` the Potency was inconclusive: 100 µM [inhibitor, partial curve, poor fit].
